{"sequences": {"note": "Chains of the proteins cited; added tags and fusions are not shown. Lines headed by an entry give the natural chain unless they say otherwise; changes in a name come on top.", "UniProt E0ZPS2": "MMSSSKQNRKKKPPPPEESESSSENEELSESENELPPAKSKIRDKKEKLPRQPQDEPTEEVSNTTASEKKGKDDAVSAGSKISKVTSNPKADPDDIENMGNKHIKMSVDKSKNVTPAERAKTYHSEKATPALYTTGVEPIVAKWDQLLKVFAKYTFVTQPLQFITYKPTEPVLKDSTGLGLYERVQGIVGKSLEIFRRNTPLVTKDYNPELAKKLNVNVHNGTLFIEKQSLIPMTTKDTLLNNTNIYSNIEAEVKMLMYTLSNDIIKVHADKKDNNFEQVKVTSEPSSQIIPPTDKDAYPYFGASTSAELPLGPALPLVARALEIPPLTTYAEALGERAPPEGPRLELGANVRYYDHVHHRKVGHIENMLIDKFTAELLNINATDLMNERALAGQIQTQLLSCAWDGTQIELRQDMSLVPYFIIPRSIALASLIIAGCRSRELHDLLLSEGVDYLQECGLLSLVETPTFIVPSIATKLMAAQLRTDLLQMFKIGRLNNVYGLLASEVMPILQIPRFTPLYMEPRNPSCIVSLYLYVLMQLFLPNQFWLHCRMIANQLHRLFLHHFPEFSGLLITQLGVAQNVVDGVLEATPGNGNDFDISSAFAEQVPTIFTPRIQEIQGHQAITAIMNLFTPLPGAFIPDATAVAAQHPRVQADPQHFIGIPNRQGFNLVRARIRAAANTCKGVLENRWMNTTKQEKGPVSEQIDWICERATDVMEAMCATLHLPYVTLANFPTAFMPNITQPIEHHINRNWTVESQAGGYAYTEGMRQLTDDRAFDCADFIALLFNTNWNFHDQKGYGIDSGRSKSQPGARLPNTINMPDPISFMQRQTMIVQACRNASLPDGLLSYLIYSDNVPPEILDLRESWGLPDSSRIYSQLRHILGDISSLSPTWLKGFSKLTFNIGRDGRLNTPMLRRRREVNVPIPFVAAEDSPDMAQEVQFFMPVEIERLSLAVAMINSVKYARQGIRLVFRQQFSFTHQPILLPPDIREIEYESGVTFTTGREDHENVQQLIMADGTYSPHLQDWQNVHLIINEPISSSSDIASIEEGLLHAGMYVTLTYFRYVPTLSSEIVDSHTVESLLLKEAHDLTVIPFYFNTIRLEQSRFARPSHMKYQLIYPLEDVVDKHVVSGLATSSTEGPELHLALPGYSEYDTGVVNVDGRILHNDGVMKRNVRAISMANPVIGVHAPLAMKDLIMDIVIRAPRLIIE", "UniProt E0ZPS1": "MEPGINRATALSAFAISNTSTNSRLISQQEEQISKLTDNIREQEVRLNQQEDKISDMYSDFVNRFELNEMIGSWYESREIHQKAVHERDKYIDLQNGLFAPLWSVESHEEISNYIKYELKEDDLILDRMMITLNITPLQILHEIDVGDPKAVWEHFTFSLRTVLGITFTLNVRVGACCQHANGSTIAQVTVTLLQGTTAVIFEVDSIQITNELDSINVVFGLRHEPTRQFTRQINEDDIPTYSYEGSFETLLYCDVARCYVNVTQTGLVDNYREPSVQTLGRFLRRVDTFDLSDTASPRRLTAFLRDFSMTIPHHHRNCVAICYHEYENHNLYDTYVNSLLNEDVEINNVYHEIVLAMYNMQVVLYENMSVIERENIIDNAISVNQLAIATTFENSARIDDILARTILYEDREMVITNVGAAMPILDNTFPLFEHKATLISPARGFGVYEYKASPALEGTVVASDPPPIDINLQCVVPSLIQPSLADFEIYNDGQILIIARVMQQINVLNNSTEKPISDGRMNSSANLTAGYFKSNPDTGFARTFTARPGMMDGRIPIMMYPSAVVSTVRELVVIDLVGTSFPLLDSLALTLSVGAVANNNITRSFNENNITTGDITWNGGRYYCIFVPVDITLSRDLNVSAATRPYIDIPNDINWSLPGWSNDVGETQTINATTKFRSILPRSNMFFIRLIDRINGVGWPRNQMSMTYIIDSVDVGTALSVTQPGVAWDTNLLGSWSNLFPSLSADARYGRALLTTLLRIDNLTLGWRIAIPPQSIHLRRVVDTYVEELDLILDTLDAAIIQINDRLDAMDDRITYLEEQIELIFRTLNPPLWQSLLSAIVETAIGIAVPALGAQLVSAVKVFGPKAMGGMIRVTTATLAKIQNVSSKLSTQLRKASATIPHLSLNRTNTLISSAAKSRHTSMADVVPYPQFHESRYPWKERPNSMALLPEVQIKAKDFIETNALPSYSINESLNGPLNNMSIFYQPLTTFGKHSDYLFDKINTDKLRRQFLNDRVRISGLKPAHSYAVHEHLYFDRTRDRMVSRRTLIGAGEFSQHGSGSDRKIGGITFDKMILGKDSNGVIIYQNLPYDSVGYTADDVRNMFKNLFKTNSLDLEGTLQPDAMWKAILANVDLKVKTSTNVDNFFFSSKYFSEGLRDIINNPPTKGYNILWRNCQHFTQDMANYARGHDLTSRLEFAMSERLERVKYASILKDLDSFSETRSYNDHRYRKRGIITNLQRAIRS"}, "source": "paper PMC2927528", "biological_target": "AmCPV S3 encoded protein p137 (recombinant, from baculovirus-infected Sf9 cells) (Antheraea mylitta cytoplasmic polyhedrosis virus (AmCPV)) (UniProt E0ZPS2)", "test": "co-sedimentation; Sf9 cells co-infected with S1 and S3 recombinant baculoviruses; VLPs purified on a 10-40% sucrose density gradient and pelleted; SDS-8% PAGE (Coomassie) and immunoblot with anti-p137 and anti-p141 antibodies", "note": "Results are given in words; binding and its absence hold for the method and conditions named. Binding seen in cells or lysates may run through a third protein. Binding calls can cover weak binding; strength is not graded here."}
{"substance": "AmCPV S1 encoded protein p141 (recombinant, from baculovirus-infected Sf9 cells) (from UniProt E0ZPS1)", "values": [{"measurement": "binding", "result": "binds"}]}
